In patent US20030114529A1, “Hydroxamic acid thrombospondin peptide analog that inhibits aggrecanase activity” (priority 2001, published 2003):
At least one compound was matched to its structure with a doubt left. Where a SMILES comes first, the peptide text is derived from it. The star is where a group is joined. Succinyl(2R-iBu,4-NHOH) = CC(C)C[C@H](CC(=O)NO)C(=O)*; X1 = CC(C)CC(CC(=O)NO)C(=O)*

How the values were obtained:
ADAMTS-4 = ADAMTS-4 (Homo sapiens, UniProt O75173); assay: Ki (nM)
ADAMTS4 (aggrecanase 1) = target: T1, ADAMTS4 (aggrecanase 1) (Homo sapiens, UniProt O75173); assay: Inhibition of ADAMTS-4 cleavage of bovine aggrecan by hydroxamic acid thrombospondin peptides (ARGS ELISA); format: biochemical; conditions: 25 pmolar ADAMTS4, 500 nmolar bovine aggrecan monomer, 4 hrs
T1 sequence (O75173 213-837): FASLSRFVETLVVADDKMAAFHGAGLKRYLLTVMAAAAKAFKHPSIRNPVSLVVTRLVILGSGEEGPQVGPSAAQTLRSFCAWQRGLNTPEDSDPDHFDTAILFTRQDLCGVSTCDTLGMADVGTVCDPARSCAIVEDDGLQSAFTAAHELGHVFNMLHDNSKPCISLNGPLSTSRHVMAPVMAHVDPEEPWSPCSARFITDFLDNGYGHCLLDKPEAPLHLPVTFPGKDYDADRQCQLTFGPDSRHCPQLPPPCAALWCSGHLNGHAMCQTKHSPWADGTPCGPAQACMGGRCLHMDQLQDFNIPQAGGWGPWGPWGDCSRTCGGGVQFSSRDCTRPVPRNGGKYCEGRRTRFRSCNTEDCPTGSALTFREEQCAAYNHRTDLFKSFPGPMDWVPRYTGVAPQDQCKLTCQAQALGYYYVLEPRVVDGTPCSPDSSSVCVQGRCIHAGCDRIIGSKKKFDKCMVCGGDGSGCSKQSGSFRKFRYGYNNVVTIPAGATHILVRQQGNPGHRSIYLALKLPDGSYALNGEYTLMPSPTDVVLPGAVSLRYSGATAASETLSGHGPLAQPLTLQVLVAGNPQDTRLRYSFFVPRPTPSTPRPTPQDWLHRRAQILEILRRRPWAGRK

Compound	Ki (ADAMTS-4) [nM]	Ki (ADAMTS4 (aggrecanase 1)) [nM]
CC(C)C[C@H](CC(=O)NO)C(=O)N[C@H](C(=O)N[C@@H](CO)C(=O)N[C@@H](CCC(N)=O)C(=O)N[C@@H](C)C(=O)NCC(=O)NCC(=O)N[C@@H](Cc1c[nH]c2ccccc12)C(=O)NCC(=O)N1CCC[C@H]1C(=O)N[C@@H](Cc1c[nH]c2ccccc12)C(=O)NCC(=O)N1CCC[C@H]1C(=O)N[C@@H](Cc1c[nH]c2ccccc12)C(=O)NCC(=O)N[C@@H](CC(=O)O)C(=O)N[C@@H](CO)C(=O)N[C@@H](CO)C(=O)N[C@@H](C)C(=O)N[C@H](C(=O)O)[C@@H](C)O)C(C)C [AS323] ({Succinyl(2R-iBu,4-NHOH)}-VSQAGGWGPWGPWGDSSAT-OH; N-terminus and C-terminus assumed)	38	
CC[C@H](C)[C@H](NC(=O)[C@H](CC(N)=O)NC(=O)[C@H](CO)NC(=O)[C@@H](NC(=O)C(CC(=O)NO)CC(C)C)C(C)C)C(=O)N[C@@H](CO)C(=O)N[C@@H](CCC(N)=O)C(=O)N[C@@H](C)C(=O)NCC(=O)NCC(=O)N[C@@H](Cc1c[nH]c2ccccc12)C(=O)NCC(=O)N1CCC[C@H]1C(=O)N[C@@H](Cc1c[nH]c2ccccc12)C(=O)NCC(=O)N1CCC[C@H]1C(=O)N[C@@H](Cc1c[nH]c2ccccc12)C(=O)NCC(=O)N[C@@H](CC(=O)O)C(=O)N[C@@H](CO)C(=O)N[C@@H](CO)C(=O)N[C@@H](C)C(=O)N[C@H](C(=O)O)[C@@H](C)O (stereo partly shown) [AS324] (X1-VSNISQAGGWGPWGPWGDSSAT-OH; N-terminus and C-terminus assumed)		8.8
CC[C@H](C)[C@H](NC(=O)[C@H](CC(N)=O)NC(=O)[C@H](CO)NC(=O)[C@@H](NC(=O)[C@@H](CC(=O)NO)CC(C)C)C(C)C)C(=O)N[C@@H](CO)C(=O)N[C@@H](CCC(N)=O)C(=O)N[C@@H](C)C(=O)NCC(=O)NCC(=O)N[C@@H](Cc1c[nH]c2ccccc12)C(=O)NCC(=O)N1CCC[C@H]1C(=O)N[C@@H](Cc1c[nH]c2ccccc12)C(=O)NCC(=O)N1CCC[C@H]1C(=O)N[C@@H](Cc1c[nH]c2ccccc12)C(=O)NCC(=O)N[C@@H](CC(=O)O)C(=O)N[C@@H](CO)C(=O)N[C@@H](CO)C(=O)N[C@@H](C)C(=O)N[C@H](C(=O)O)[C@@H](C)O [AS324] ({Succinyl(2R-iBu,4-NHOH)}-VSNISQAGGWGPWGPWGDSSAT-OH; N-terminus and C-terminus assumed)	8	
CC[C@H](C)[C@H](NC(=O)[C@H](CC(N)=O)NC(=O)[C@H](CO)NC(=O)[C@H](CC(=O)O)NC(=O)[C@H](CCC(N)=O)NC(=O)[C@H](CC(C)C)NC(=O)[C@H](CCC(N)=O)NC(=O)[C@H](CC(=O)O)NC(=O)[C@H](CCSC)NC(=O)[C@@H](NC(=O)[C@@H](CC(=O)NO)CC(C)C)C(C)C)C(=O)N[C@@H](CO)C(=O)N[C@@H](CCC(N)=O)C(=O)N[C@@H](C)C(=O)NCC(=O)NCC(=O)N[C@@H](Cc1c[nH]c2ccccc12)C(=O)NCC(=O)N1CCC[C@H]1C(=O)N[C@@H](Cc1c[nH]c2ccccc12)C(=O)NCC(=O)N1CCC[C@H]1C(=O)N[C@@H](Cc1c[nH]c2ccccc12)C(=O)NCC(=O)N[C@@H](CC(=O)O)C(=O)N[C@@H](CO)C(=O)N[C@@H](CO)C(=O)N[C@@H](C)C(=O)N[C@H](C(=O)O)[C@@H](C)O [AS325] ({Succinyl(2R-iBu,4-NHOH)}-VMDQLQDSNISQAGGWGPWGPWGDSSAT-OH; N-terminus and C-terminus assumed)		1060
